Source: the supplement of paper PMC12024529
Where a name gives a salt, the structure may show the parent alone. The list shows a part of the results. Baselines shift from plate to plate; read single values as rough.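 Wild-type or misfolding-prone missense mutant B-domain-deleted factor VIII, fused to Gaussia luciferase, is stably expressed in HEK293 lines. Each score is (mean triplicate-well luminescence minus DMSO mean) divided by DMSO standard deviation. Hits score at least 2; lower scores could stem from decreased secretion or poorer cell viability.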

Legend:
[1] = tested on: HEK293 WT BDD-FVIII-Gluc; assay: secreted FVIII-Gluc luciferase Z-score vs DMSO control; higher = more FVIII-Gluc secretion; details: 5 µM; 24 h
[2] = tested on: HEK293 p.N1941S BDD-FVIII-Gluc; assay: as above; details: 5 µM; 24 h

SMILES	secreted FVIII-Gluc luciferase Z-score [1]	secreted FVIII-Gluc luciferase Z-score [2]
COc1cc(Nc2c(C#N)cnc3cc(OCCCN4CCN(C)CC4)c(OC)cc23)c(Cl)cc1Cl [Bosutinib (SKI-606)]	inactive: -3.26	inactive: -11.1
C[C@]12C=CC(=O)N[C@@H]1CC[C@@H]1[C@@H]2CC[C@]2(C)[C@@H](C(=O)Nc3cc(C(F)(F)F)ccc3C(F)(F)F)CC[C@@H]12 [Dutasteride]	inactive: -2.95	inactive: 0.866
CCCCOc1ccc(C(=O)CCN2CCCCC2)cc1 [Dyclonine HCl]	inactive: -0.157	inactive: -1.91
O=c1[nH]c(=O)n([C@H]2C[C@H](O)[C@@H](CO)O2)cc1C(F)(F)F [Trifluridine (Viroptic)]	inactive: -7.08	inactive: -2.92
CC(C)c1c(C(=O)Nc2ccccc2)c(-c2ccccc2)c(-c2ccc(F)cc2)n1CC[C@@H](O)C[C@@H](O)CC(=O)O [Atorvastatin calcium (Lipitor)]	inactive: -0.633	inactive: -2.12
CNC(=O)c1cc(Oc2ccc(NC(=O)Nc3ccc(Cl)c(C(F)(F)F)c3)c(F)c2)ccn1 [Regorafenib (BAY 73-4506)]	inactive: -3.47	inactive: -9.28
CCOc1ccccc1OC(c1ccccc1)C1CNCCO1 (stereo not given) [Reboxetine mesylate]	inactive: -1.21	inactive: -3.67
COc1ccc(-c2ccc3cc(C(=O)O)ccc3c2)cc1C12CC3CC(CC(C3)C1)C2 [Adapalene]	inactive: -3.96	inactive: -13.3
COc1ccc(-c2nc3cc(C4=NNC(=O)CC4C)ccc3[nH]2)cc1 (stereo not given) [Pimobendan (Vetmedin)]	inactive: 0.0806	inactive: -4
O=c1ccn([C@@H]2O[C@H](CO)[C@@H](O)[C@H]2O)c(=O)[nH]1 [Uridine]	inactive: 1.66	inactive: 1.33
OCCOCCN1CCN(C(c2ccccc2)c2ccc(Cl)cc2)CC1 (stereo not given) [Hydroxyzine 2HCl]	inactive: -0.986	inactive: -0.611
CC1(C)S[C@@H]2[C@H](NC(=O)[C@H](NC(=O)N3CCN(S(C)(=O)=O)C3=O)c3ccccc3)C(=O)N2[C@H]1C(=O)O [Mezlocillin Sodium]	inactive: -0.655	inactive: 0.981
CNC(=C[N+](=O)[O-])NCCSCc1csc(CN(C)C)n1 [Nizatidine]	inactive: -2.55	inactive: -2.34
O[C@@H]1CO[C@H]2[C@@H]1OC[C@@H]2O [Isosorbide]	active: 2.31	inactive: 0.783
O=S(=O)(O)Oc1ccc(C(c2ccc(OS(=O)(=O)O)cc2)c2ccccn2)cc1 [Sodium Picosulfate]	inactive: -1.16	inactive: -0.389
OCCN1C[C@H](O)[C@@H](O)[C@H](O)[C@H]1CO [Miglitol (Glyset)]	inactive: -2.85	inactive: -0.487
Nc1nc(O)c2ncn(CCC(CO)CO)c2n1 [Penciclovir]	inactive: 1.42	inactive: -0.886
N[C@@H](Cc1cc(I)c(Oc2ccc(O)c(I)c2)c(I)c1)C(=O)O [Liothyronine Sodium]	inactive: 1.25	inactive: 0.644
O=C1N=C(O)NC1(c1ccccc1)c1ccccc1 [Phenytoin sodium (Dilantin)]	inactive: -1.65	inactive: -0.235
C[C@H](N[C@@H](CCc1ccccc1)C(=O)O)C(=O)N1CCC[C@H]1C(=O)O [Enalaprilat dihydrate]	inactive: 1.73	inactive: -1.69
NC(N)=Nc1nc(CSCC/C(N)=N/S(N)(=O)=O)cs1 [Famotidine (Pepcid)]	inactive: 0.469	inactive: -0.984
N#CC(c1ccc(Cl)cc1)c1c(Cl)cc(-n2ncc(=O)[nH]c2=O)cc1Cl (stereo not given) [Diclazuril]	inactive: -0.341	inactive: -0.58
CCOC(=O)[C@H](CCc1ccccc1)N[C@@H](C)C(=O)N1Cc2cc(OC)c(OC)cc2C[C@H]1C(=O)O [Moexipril HCl]	inactive: 0.805	inactive: 0.0615
Nc1ccc(/N=N/c2ccccc2)c(N)n1 [Phenazopyridine HCl]	inactive: -0.425	inactive: 0.764
CC(C)NCC(O)COc1ccc(CCOCC2CC2)cc1 (stereo not given) [Betaxolol (Betoptic)]	inactive: -0.31	inactive: -1.11
COc1ccc2cc1Oc1ccc(cc1)C[C@H]1c3c(cc4c(c3Oc3cc5c(cc3OC)CCN(C)[C@@H]5C2)OCO4)CCN1C [Cepharanthine]	inactive: -1.44	inactive: -1.2
NS(=O)(=O)c1cc2c(cc1Cl)N=CNS2(=O)=O [Chlorothiazide]	inactive: -1.07	inactive: 0.0286
O=C(Nc1c(Cl)cncc1Cl)c1ccc(OC(F)F)c(OCC2CC2)c1 [Roflumilast (Daxas)]	inactive: 0.819	inactive: -0.671

Four of these compounds in a different format.
O[C@@H]1CO[C@H]2[C@@H]1OC[C@@H]2O [Isosorbide]
  secreted FVIII-Gluc luciferase Z-score [1]: active: 2.31; secreted FVIII-Gluc luciferase Z-score [2]: inactive: 0.783
O=S(=O)(O)Oc1ccc(C(c2ccc(OS(=O)(=O)O)cc2)c2ccccn2)cc1 [Sodium Picosulfate]
  secreted FVIII-Gluc luciferase Z-score [1]: inactive: -1.16; secreted FVIII-Gluc luciferase Z-score [2]: inactive: -0.389
OCCN1C[C@H](O)[C@@H](O)[C@H](O)[C@H]1CO [Miglitol (Glyset)]
  secreted FVIII-Gluc luciferase Z-score [1]: inactive: -2.85; secreted FVIII-Gluc luciferase Z-score [2]: inactive: -0.487
Nc1nc(O)c2ncn(CCC(CO)CO)c2n1 [Penciclovir]
  secreted FVIII-Gluc luciferase Z-score [1]: inactive: 1.42; secreted FVIII-Gluc luciferase Z-score [2]: inactive: -0.886

Further results.

SMILES	secreted FVIII-Gluc luciferase Z-score [1]	secreted FVIII-Gluc luciferase Z-score [2]
NS(=O)(=O)Cc1noc2ccccc12 [Zonisamide]	inactive: -4.77	inactive: -0.158
CCN1CCCC1CNC(=O)c1cc(S(=O)(=O)CC)c(N)cc1OC (stereo not given) [Amisulpride]	inactive: -0.309	inactive: -1.33
CCCN1CCCC[C@H]1C(=O)Nc1c(C)cccc1C [Ropivacaine HCl]	inactive: -0.769	inactive: 0.681
N=C(N)NC(=O)c1nc(Cl)c(N)nc1N [Amiloride hydrochloride dihydrate]	inactive: -0.644	inactive: -1.65
CN1CCCC(n2nc(Cc3ccc(Cl)cc3)c3ccccc3c2=O)CC1 (stereo not given) [Azelastine hydrochloride (Astelin)]	active: 2.42	inactive: -2.47
CC(/C=C1\SC(=S)N(CC(=O)O)C1=O)=C\c1ccccc1 [Epalrestat]	inactive: -0.207	inactive: 0.591
CN1C(C(=O)Nc2ccccn2)=C(O)c2sccc2S1(=O)=O [Tenoxicam (Mobiflex)]	inactive: -0.675	inactive: -1.1
O=C(NC(Cc1cc(=O)[nH]c2ccccc12)C(=O)O)c1ccc(Cl)cc1 (stereo not given) [Rebamipide]	inactive: -0.48	inactive: 1.52
O=C(CCCCCCC(=O)Nc1ccccc1)NO [Vorinostat (SAHA)]	active: 4.92	active: 6.07
Cn1c([N+](=O)[O-])cnc1COC(N)=O [Ronidazole]	inactive: -1.08	inactive: -0.565
C[C@H]1[C@H](NC(=O)/C(=N\OC(C)(C)C(=O)O)c2csc(N)n2)C(=O)N1S(=O)(=O)O [Aztreonam (Azactam, Cayston)]	inactive: -4.3	inactive: -0.307
COc1c(C)c2c(c(O)c1C/C=C(\C)CCC(=O)O)C(=O)OC2 [Mycophenolic (Mycophenolate)]	inactive: -4.55	inactive: -6.61
CCCCN1CCCCC1C(=O)Nc1c(C)cccc1C (stereo not given) [Bupivacaine hydrochloride (Marcain)]	inactive: -1.69	inactive: -2.36
CC(C)C(=O)Nc1ccc([N+](=O)[O-])c(C(F)(F)F)c1 [Flutamide (Eulexin)]	inactive: -1.23	inactive: -0.0341
CC(C)NC[C@H](O)COc1ccc(CCOCC2CC2)cc1 [Levobetaxolol HCl]	inactive: -0.382	inactive: -1.13
CCCC(=O)OCOC(=O)C1=C(C)NC(C)=C(C(=O)OC)C1c1cccc(Cl)c1Cl (stereo not given) [Cleviprex (Clevidipine)]	inactive: -0.331	inactive: -0.277
NS(=O)(=O)c1cc2c(cc1Cl)N=C(CSCc1ccccc1)NS2(=O)=O [Benzthiazide]	inactive: -0.743	inactive: 1.64
N#C[C@@H]1CCCN1C(=O)CNC12CC3CC(CC(O)(C3)C1)C2 [Vildagliptin (LAF-237)]	inactive: -0.608	inactive: 0.215
O=C(O)c1cc(=O)c2ccccc2o1 [Chromocarb]	inactive: 0.388	inactive: 0.0209
CNCCC(Oc1ccc(C(F)(F)F)cc1)c1ccccc1 (stereo not given) [Fluoxetine  HCl]	inactive: -2.31	inactive: 0.173
O=c1c(-c2ccc(O)cc2)coc2cc(O)ccc12 [Daidzein]	inactive: -6.06	inactive: -0.554
O=C1O[C@H]([C@@H](O)CO)C(O)=C1O [Vitamin C (Ascorbic acid)]	inactive: -1.56	inactive: -0.234
CCC[C@H](NC(=O)[C@@H]1[C@H]2CCC[C@H]2CN1C(=O)[C@@H](NC(=O)[C@@H](NC(=O)c1cnccn1)C1CCCCC1)C(C)(C)C)C(=O)C(=O)NC1CC1 [Telaprevir (VX-950)]	inactive: -3.7	inactive: -1.12
CC1=C(/C=C/C(C)=C/C=C/C(C)=C/C=C/C=C(C)/C=C/C=C(C)/C=C/C2=C(C)CCCC2(C)C)C(C)(C)CCC1 [Beta Carotene]	inactive: -1.69	inactive: 0.00802
N=C(N)NC(=N)NCCc1ccccc1 [Phenformin hydrochloride]	inactive: 1.47	inactive: -0.889
CCC(C)C1OC2(CCC1C)CC1CC(CC=C(C)C(OC3CC(OC)C(OC4CC(OC)C(O)C(C)O4)C(C)O3)C(C)C=CC=C3COC4C(O)C(C)=CC(C(=O)O1)C34O)O2 (stereo not given) [Ivermectin]	inactive: -2.73	inactive: -2.79
Nc1nnc(-c2cccc(Cl)c2Cl)c(N)n1 [Lamotrigine]	inactive: -0.189	inactive: 0.313
